These are yes or no findings as the source states them, for the method shown. Some entries that bind do so weakly or less than the wild type.
Columns and labels:
[1] = biological target: FokI catalytic domain protein including a C-terminal 6xHis tag and GSGS linker (Flavobacterium okeanokoites) (UniProt P14870); assay: Biacore SPR, antibody as ligand, FokI as analyte
[2] = biological target: FokI catalytic domain protein including a C-terminal 6xHis tag and GSGS linker (Flavobacterium okeanokoites) (UniProt P14870); assay: ELISA (antigen taken from the row's Analyte column)
[3] = biological target: FokI catalytic domain protein including a C-terminal 6xHis tag and GSGS linker (Flavobacterium okeanokoites) (UniProt P14870); assay: Western blot (antigen taken from the row's Analyte column)

Amino acid sequences for entries named in this document (tags omitted). A change or cut given only in a name is not applied to a line headed by its entry.
UniProt P14870: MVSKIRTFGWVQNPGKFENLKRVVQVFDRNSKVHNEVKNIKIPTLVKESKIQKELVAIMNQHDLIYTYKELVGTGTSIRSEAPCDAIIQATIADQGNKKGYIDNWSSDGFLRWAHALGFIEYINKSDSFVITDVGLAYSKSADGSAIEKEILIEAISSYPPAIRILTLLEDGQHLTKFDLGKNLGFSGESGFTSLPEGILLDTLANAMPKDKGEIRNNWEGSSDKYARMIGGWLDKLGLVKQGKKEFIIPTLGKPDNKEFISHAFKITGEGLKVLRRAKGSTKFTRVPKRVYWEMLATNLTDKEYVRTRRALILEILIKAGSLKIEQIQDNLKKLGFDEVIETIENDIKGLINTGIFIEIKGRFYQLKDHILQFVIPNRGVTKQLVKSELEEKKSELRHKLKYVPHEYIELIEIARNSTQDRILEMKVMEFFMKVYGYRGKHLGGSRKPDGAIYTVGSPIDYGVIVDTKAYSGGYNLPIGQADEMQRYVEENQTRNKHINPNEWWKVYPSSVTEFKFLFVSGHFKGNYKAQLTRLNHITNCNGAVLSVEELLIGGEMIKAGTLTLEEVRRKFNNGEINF

Measured: binding

B1: 2299.5D4.C8 (antibody, V domains shown)
VH: QIQLVQSGPELKKPGETVKISCKASGYTFTDYSIHWVKQAPGEGLKWMAWINTETGAPTFADDFKGRLALSLETSANTAYLQINNLKHEDTATYFCAKEGGFYFYAMDYWGQGTSVTVSS
VL: DIVMSQSPSSLAVSAGEKVTMSCKSSQSLLSSRTRKNYLAWYQQKPGQAPKLLISWASTRESGVPDRFTGSGSGTEFTLTISSVQAEDLAVYYCKQSYNLRTFGGGTKLEIK
binds: all assays above

B2: 2299.6B3.B8.B6 (antibody, V domains shown)
VH: QIQLVQSGPELKKPGETVKISCKASGYAFTDYSIHWMKQAPGEGLQWMGWINTETAKPAFGDDFKGRFAFSLETSANTAHLHINNLRTEDTATYFCAKEGGFYFYAMDYWGQGTSVTVSS
VL: DIVMSQSPSSLAVSAGEKVTMNCKSSQSLLSSRTRKNYLAWYQQKPGQSPKLLIYWASTRDSGVPDRFTGSGSGTDFTLTISSVQAEDLAVYYCKQSYNFRTFGGGTKLEIK
binds: all assays above

B3: 2299.2G3.C6 (antibody, V domains shown)
VH: QIQLVQSGPELKKPGETVKISCKASGYTFTDYSIHWVKQAPGEGLKWMAWINTETGAPTFADDFKGRLALSLETSANTAYLQINNLKHEDTATYFCAKEGGFYFYAMDYWGQGTSVTVSS
VL: DIVMSQSPSSRAVSAGEKVTMSCKSSQSLLSSRTRKNYLAWYQQKPGQAPKMLISWASTREFGVPDRFTGSGFGTDFTLTISSVQGEDLAVYYCKQSYNFRTFGGGTKLEIK
binds: all assays above

B4: 2299.7F11.B4 (antibody, V domains shown)
VH: QIQLVQSGPELKKPGETVKISCKASGYTFTDYSIHWVKQAPGKGLKWMAWINTETGDPTYEDDFKGRFAFSLETSASTAYLQINNLKNEDTATYFCSKEGGFYFYAMDYWGQGTSVTVSS
VL: DIVMSQSPSSLAVSAGEKVTMSCKSSQSLLSSRTRKNYLAWYQQKPGQSPKLLIKWASTRESGVPDRFTGSGSGTDFTLTISSVQAEDLAVYYCKQSYNLRTFGGGTKLEIK
binds: all assays above

B5: 2299.6G5.C7 (antibody, V domains shown)
VH: QIQLVQSGPELKKPGETVKISCKASGYTFTDYSIHWVKQAPGKGLKWMGWINTETGAPTFADDFKGRFAFSLETSASTAFLQINNLKNEDTATYFCAKEGGFYFYAMDYWGQGTSLTVSS
VL: DIVMSQSPSSLAVSTGEKVTMSCKSSQSLLSSRTRKNYLAWYQQKPGQAPKLLISWASTRESGVPDRFTGSGSGTDFTLTISSVQAEDLAVYYCKQSFNLRTFGGGTKLEIK
binds: all assays above
